Measurements as given in patent publication US20150113679A1.
These are yes or no findings as the source states them, for the method shown. For some assays here: In cells and extracts the contact can be indirect. Some entries that bind do so weakly or less than the wild type.

How the values were obtained:
[1] = target: T1, PPD3, 27.5 kDa PsbP domain-containing protein (Arabidopsis, AT1G76450) (Arabidopsis) (UniProt Q9S720); experiment: yeast 2-hybrid, full-length MSH1 as bait, screen and one-on-one matings
T1 sequence (looked up): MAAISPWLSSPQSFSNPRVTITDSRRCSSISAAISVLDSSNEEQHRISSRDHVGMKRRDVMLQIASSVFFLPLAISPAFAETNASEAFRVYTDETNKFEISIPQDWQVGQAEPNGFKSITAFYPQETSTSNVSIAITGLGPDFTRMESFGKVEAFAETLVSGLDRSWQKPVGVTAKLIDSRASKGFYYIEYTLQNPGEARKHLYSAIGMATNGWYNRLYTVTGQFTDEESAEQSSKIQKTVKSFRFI

[2] = target: T1, PPD3, 27.5 kDa PsbP domain-containing protein (Arabidopsis, AT1G76450) (Arabidopsis); experiment: co-immunoprecipitation and yeast 2-hybrid

binding [1]: binds
binding [2]: binds
B1: Arabidopsis MSH1 protein (MUTS HOMOLOG 1), full-length (protein)
chain: MHWIATRNAVVSFPKWRFFFRSSYRTYSSLKPSSPILLNRRYSEGISCLRDGKSLKRITTASKKVKTSSDVLTDKDLSHLVWWKERLQTCKKPSTLQLIERLMYTNLLGLDPSLRNGSLKDGNLNWEMLQFKSRFPREVLLCRVGEFYEAIGIDACILVEYAGLNPFGGLRSDSIPKAGCPIMNLRQTLDDLTRNGYSVCIVEEVQGPTPARSRKGRFISGHAHPGSPYVYGLVGVDHDLDFPDPMPVVGISRSARGYCMISIFETMKAYSLDDGLTEEALVTKLRTRRCHHLFLHASLRHNASGTCRWGEFGEGGLLWGECSSRNFEWFEGDTLSELLSRVKDVYGLDDEVSFRNVNVPSKNRPRPLHLGTATQIGALPTEGIPCLLKVLLPSTCSGLPSLYVRDLLLNPPAYDIALKIQETCKLMSTVTCSIPEFTCVSSAKLVKLLEQREANYIEFCRIKNVLDDVLHMHRHAELVEILKLLMDPTWVATGLKIDFDTFVNECHWASDTIGEMISLDENESHQNVSKCDNVPNEFFYDMESSWRGRVKGIHIEEEITQVEKSAEALSLAVAEDFHPIISRIKATTASLGGPKGEIAYAREHESVWFKGKRFTPSIWAGTAGEDQIKQLKPALDSKGKKVGEEWFTTPKVEIALVRYHEASENAKARVLELLRELSVKLQTKINVLVFASMLLVISKALFSHACEGRRRKWVFPTLVGFSLDEGAKPLDGASRMKLTGLSPYWFDVSSGTAVHNTVDMQSLFLLTGPNGGGKSSLLRSICAAALLGISGLMVPAESACIPHFDSIMLHMKSYDSPVDGKSSFQVEMSEIRSIVSQATSRSLVLIDEICRGTETAKGTCIAGSVVESLDTSGCLGIVSTHLHGIFSLPLTAKNITYKAMGAENVEGQTKPTWKLTDGVCRESLAFETAKREGVPESVIQRAEALYLSVYAKDASAEVVKPDQIITSSNNDQQIQKPVSSERSLEKDLAKAIVKICGKKMIEPEAIECLSIGARELPPPSTVGSSCVYVMRRPDKRLYIGQTDDLEGRIRAHRAKEGLQGSSFLYLMVQGKSMACQLETLLINQLHEQGYSLANLADGKHRNFGTSSSLSTSDVVSIL
